Data taken from doi:10.1101/2023.03.05.531149.

Sequences of proteins named here, by UniProt entry; tags and fusion partners are left off. Residues count along the entry.
UniProt P48431, residues 115-240: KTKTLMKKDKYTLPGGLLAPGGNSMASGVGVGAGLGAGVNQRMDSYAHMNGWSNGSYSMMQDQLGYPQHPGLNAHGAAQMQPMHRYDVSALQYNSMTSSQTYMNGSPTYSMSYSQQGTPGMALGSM
UniProt Q9Z0Z7: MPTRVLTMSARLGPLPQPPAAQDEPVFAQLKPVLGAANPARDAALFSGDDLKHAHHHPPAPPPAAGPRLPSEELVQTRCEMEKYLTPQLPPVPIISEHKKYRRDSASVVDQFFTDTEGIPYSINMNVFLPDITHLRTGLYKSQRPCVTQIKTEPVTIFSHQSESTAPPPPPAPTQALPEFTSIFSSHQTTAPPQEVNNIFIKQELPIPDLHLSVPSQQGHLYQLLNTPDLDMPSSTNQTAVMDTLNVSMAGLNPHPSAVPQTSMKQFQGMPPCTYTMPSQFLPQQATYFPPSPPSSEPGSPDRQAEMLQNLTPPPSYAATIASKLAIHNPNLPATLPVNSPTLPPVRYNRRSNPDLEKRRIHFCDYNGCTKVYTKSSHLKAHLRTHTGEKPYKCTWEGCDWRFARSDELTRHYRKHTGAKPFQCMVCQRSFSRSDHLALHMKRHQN

Columns and labels:
[1] = molecular target: AviTag-Sox2(aa115-240), biotinylated, non-phosphorylated (human) (UniProt P48431); assay: affinity purification with mass spectrometry
[2] = molecular target: phospho-Sox2(aa115-240)-pS212-pS220-pT232, AviTag, biotinylated (human) (UniProt P48431); assay: affinity purification with mass spectrometry

In the case of Klf5 (from UniProt Q9Z0Z7 1-446), the binding [1] is reported as “binds” and the binding [2] is reported as “binds”.

These are yes or no findings as the source states them, for the method shown. Binding seen in cells or lysates may run through a third protein. These calls come from enrichment with a bait or labelling near it, and not all partners need be listed.
